# Measured values: patent publication US4703034 (dated 1987)
# Assay: general procedure: Boc solid-phase peptide synthesis; BOC-Phe-O-resin (resin=CH2-polystyrene 1% crosslinked with p-divinylbenzene)
# Conditions: late stage modification step
substance,measurement,value
cyclo(Trp-Lys-δ-Orn(COCH2 CH2 CH2 Ph)-Phe),final HPLC purity,HPLC (97%)
